Drawing on US11202821B2, “Glucose oxidase compositions” (VEGANUTRITECH LLP, priority 2016, dated 2021), this text covers glycemic index, After-taste and Sweetness index for four compounds.

For series [1] the following is noted: background statement; cited from earlier work.
A short description of series [2]: Sweetness levels and after taste comparison (taste evaluation). Set-up: species or system human. Particulars: for Sweetness index: sweetness intensity on a scale of 0-5, 0 = no perceptible sweetness, 5 = sweetness of sugar, 10 ml sample.

Take `O.O=C[C@H](O)[C@@H](O)[C@H](O)[C@H](O)CO` [Dextrose monohydrate]: the glycemic index in series [1] is given as at least 100.
As for `OC[C@H]1OC(O)[C@H](O)[C@@H](O)[C@@H]1O` (some centres unmarked) [Glucose], in series [1], the glycemic index is 100. In series [2], the After-taste entry is on record as “No” and the Sweetness index is listed as 2.
As for `OC[C@H]1O[C@@](CO)(O[C@H]2O[C@H](CO)[C@@H](O)[C@H](O)[C@H]2O)[C@@H](O)[C@@H]1O` [Sugar], in series [1], the glycemic index was 65. Also, in series [2], the After-taste result is recorded as “No” and the Sweetness index turned out to be 5.
On to maltodextrin, for which, in series [1], the glycemic index is 110.
